Source: US20250198990A1 (Stanford University, published 2025)
Results are given in words; binding and its absence hold for the method and conditions named. Some binding calls cover weakened binding; strength is not graded here. Sequences can lack the tags named with a protein.

Assays:
[1] = target: Human LAG-3 fused to CFP or YFP, on Expi293F cells (human) (UniProt P18627); assay: flow-FRET; self-association
[2] = target: Human LAG-3 fused to CFP or YFP, on Expi293F cells (human) (UniProt P18627); assay: flow-FRET in Expi293 cells; self-association
[3] = target: Human LAG-3 fused to CFP or YFP, on Expi293F cells (human) (UniProt P18627); assay: flow-FRET in Expi293F cells; self-association

binding [1]: binds
binding [2]: binds
binding [3]: binds
B1: Human LAG-3 fused to CFP or YFP, on Expi293F cells (receptor, not shown: large carriers)
chain: VPVVWAQEGAPAQLPCSPTIPLQDLSLLRRAGVTWQHQPDSGPPAAAPGHPLAPGPHPAAPSSWGPRPRRYTVLSVGPGGLRSGRLPLQPRVQLDERGRQRGDFSLWLRPARRADAGEYRAAVHLRDRALSCRLRLRLGQASMTASPPGSLRASDWVILNCSFSRPDRPASVHWFRNRGQGRVPVRESPHHHLAESFLFLPQVSPMDSGPWGCILTYRDGFNVSIMYNLTVLGLEPPTPLTVYAGAGSRVGLPCRLPAGVGTRSFLTAKWTPPGGGPDLLVTGDNGDFTLRLEDVSQAQAGTYTCHIHLQEQQLNATVTLAIITVTPKSFGSPGSLGKLLCEVTPVSGQERFVWSSLDTPSQRSFSGPWLEAQEAQLLSQPWQCQLYQGERLLGAAVYFTELSSPGAQRSGRAPGALPAGHLLLFLILGVLSLLLLVTGAFGFHLWRRQWRPRRFSALEQGIHPPQAQSKIEELEQEPEPEPEPEPEPEPEPEPEQL
